Results: PubChem BioAssay AID330 (DTP/NCI, 2004)
The list is a part of this screen's results and no random one: it is rich in T/C values a quarter to a half above the control, in often repeated tests (any T/C) and in doses without a T/C. Further doses and runs are listed elsewhere. T/C gives the treated animals as a percentage of the vehicle group. Some entries give survivors of the animals treated and no T/C: the source files T/C as zero there, which appears to mark a toxic dose or a test without result, not a measured value. Some survivor counts are full or nearly so, which does not show that the dose was tolerated: the source hardly ever lists a survival T/C far under the control, and the zero likely stands for such cases as well. Survivors were counted at the toxicity check, usually on the fifth day, unless a day is given; later deaths do not show. Schedule codes are those of the source, read here as Q, the interval in days (D) or hours (H), X, the number of doses. Some entries were tested several times; the results are listed from low to high. For survival time, the PubChem record calls one and a half times the control and up active, and a quarter to a half above the control has no call in these data; cut-offs in other NCI protocols can differ. Some T/C values carry the count of animals alive at the toxicity check (mostly the fifth day); without a count, all were alive then.

Tested on: P388 leukemia ip, CD2F1 mice, survival T/C
Assay: NCI In Vivo Anticancer Drug Screen. Data for tumor model P388 Leukemia (intraperitoneal) in CD2F1 (CDF1) mice
Details: T/C endpoint: median survival time, higher T/C = longer survival
[1] = dose: 240.0 mg/kg/injection, schedule: Q01DX005 (ip), vehicle: saline with Tween-80
[2] = dose: 200.0 mg/kg/injection, schedule: Q01DX005 (ip), vehicle: saline with Tween-80
[3] = dose: 50.0 mg/kg/injection, schedule: Q01DX005 (ip), vehicle: Klucel (hydroxypropylcellulose) (HPC)
[4] = dose: 100.0 mg/kg/injection, schedule: Q01DX005 (ip), vehicle: Klucel (hydroxypropylcellulose) (HPC)
[5] = dose: 200.0 mg/kg/injection, schedule: Q01DX005 (ip), vehicle: Klucel (hydroxypropylcellulose) (HPC)
[6] = dose: 100.0 mg/kg/injection, schedule: Q01DX009 (ip), vehicle: saline
[7] = dose: 200.0 mg/kg/injection, schedule: Q01DX009 (ip), vehicle: saline
[8] = dose: 100.0 mg/kg/injection, schedule: Q01DX001 (ip), vehicle: Klucel (hydroxypropylcellulose) (HPC)
[9] = dose: 200.0 mg/kg/injection, schedule: Q01DX001 (ip), vehicle: Klucel (hydroxypropylcellulose) (HPC)
[10] = dose: 200.0 mg/kg/injection, schedule: Q01DX001 (ip), vehicle: saline
[11] = dose: 50.0 mg/kg/injection, schedule: Q01DX005 (ip), vehicle: saline with Tween-80
[12] = dose: 50.0 mg/kg/injection, schedule: Q01DX009 (ip), vehicle: saline
[13] = dose: 400.0 mg/kg/injection, schedule: Q01DX009 (ip), vehicle: saline with Tween-80

## Nc1ccn([C@@H]2C=C(CO)[C@@H](O)[C@H]2O)c(=O)n1
dose: 0.25 mg/kg/injection, schedule: Q01DX009 (ip), vehicle: saline
  T/C: 130 % of control
dose: 0.44 mg/kg/injection, schedule: Q01DX009 (ip), vehicle: saline
  T/C: 126 % of control
dose: 0.67 mg/kg/injection, schedule: Q01DX009 (ip), vehicle: saline
  T/C: 137 % of control
dose: 1.0 mg/kg/injection, schedule: Q01DX009 (ip), vehicle: saline
  T/C: 147 % of control

## COc1cc(C(c2cc3c(cc2O)OCO3)N2CCOCC2)ccc1O (configuration not stated)
[1]
  survivor count: 0 of 6

## CCN(CC)CCN1CC(=O)N2Cc3ccccc3CN2C(=O)C1
[2]
  survivor count: 1 of 5

## O=C(NC(C(=O)NC(C(=O)O)C1CC(Cl)=NO1)C1CC(Cl)=NO1)OCC1c2ccccc2-c2ccccc21 (configuration not stated)
dose: 6.2 mg/kg/injection, schedule: Q04DX003 (ip), vehicle: other
  T/C: 129 % of control
dose: 10.0 mg/kg/injection, schedule: Q04DX003 (ip), vehicle: other
  T/C: 129 % of control
dose: 20.0 mg/kg/injection, schedule: Q04DX003 (ip), vehicle: other
  T/C: 145 % of control
dose: 100.0 mg/kg/injection, schedule: Q04DX003 (ip), vehicle: other
  survivor count: 5 of 6
dose: 200.0 mg/kg/injection, schedule: Q04DX003 (ip), vehicle: other
  survivor count: 4 of 6

## C[As](C)SCC(N)C(=O)O (configuration not stated)
dose: 100.0 mg/kg/injection, schedule: Q01DX009 (ip), vehicle: Klucel (hydroxypropylcellulose) (HPC)
  survivor count: 6 of 6
dose: 200.0 mg/kg/injection, schedule: Q01DX009 (ip), vehicle: Klucel (hydroxypropylcellulose) (HPC)
  survivor count: 1 of 6

## COc1ccccc1C1=[N+]([O-])C(C)(C)C(c2ccccc2)C1 (configuration not stated)
dose: 400.0 mg/kg/injection, schedule: Q04DX002 (ip), vehicle: Klucel (hydroxypropylcellulose) (HPC)
  survivor count: 4 of 6

## CN(C)C(=Nc1ccc(NC(=O)c2ccc(C(=O)Nc3ccc(N=C(Nc4ccccc4)N(C)C)cc3)cc2)cc1)Nc1ccccc1
[3]
  survivor count: 0 of 6
[4]
  survivor count: 0 of 6
[5]
  survivor count: 0 of 6

## CCP(=S)(CC)[S][Sn]([CH3])([CH3])[S]P(=S)(CC)CC
[5]
  survivor count: 3 of 6

## Cc1cc2nc3ccc(=[N+](C)C)cc-3sc2cc1N
dose: 200.0 mg/kg/injection, schedule: Q04DX003 (ip), vehicle: saline
  survivor count: 3 of 6

## CC(C)c1ccccc1Oc1ccccc1N=C1CCN(C)C1
[6]
  survivor count: 0 of 6
[7]
  survivor count: 0 of 6

## CCCC(=O)N(C)O
dose: 400.0 mg/kg/injection, schedule: Q01DX005 (ip), vehicle: saline with Tween-80
  T/C: 146 % of control

## COC1=C(NC(C)=O)C(=O)c2nc(-c3nc(C(=O)O)c(C)c(-c4ccc(OC)c(OC)c4O)c3N)ccc2C1=O
dose: 200.0 mg/kg/injection, schedule: Q01DX009 (ip), vehicle: distilled water + Tween-80
  survivor count: 5 of 6

## [Cl][Pt+2][Cl].[NH-]CC([NH-])c1ccccc1 (configuration not stated)
dose: 3.12 mg/kg/injection, schedule: Q01DX001 (ip), vehicle: Klucel (hydroxypropylcellulose) (HPC)
  T/C: 135 % of control
dose: 6.25 mg/kg/injection, schedule: Q01DX001 (ip), vehicle: Klucel (hydroxypropylcellulose) (HPC)
  T/C: 133 % of control
[8]
  survivor count: 5 of 6
[9]
  survivor count: 5 of 6

## Cc1c(O)cccc1O
[7]
  survivor count: 0 of 6
dose: 400.0 mg/kg/injection, schedule: Q01DX009 (ip), vehicle: saline
  survivor count: 0 of 6
dose: 600.0 mg/kg/injection, schedule: Q01DX009 (ip), vehicle: saline
  survivor count: 0 of 6

## BrCc1ccc2ccc3ccc(CBr)nc3c2n1
dose: 60.0 mg/kg/injection, schedule: Q01DX005 (ip), vehicle: saline with Tween-80
  survivor count: 2 of 6
dose: 120.0 mg/kg/injection, schedule: Q01DX005 (ip), vehicle: saline with Tween-80
  survivor count: 0 of 6
[1]
  survivor count: 0 of 6

## S=C(N\N=C/C(/C=C/c1ccccc1)=N\NC(=S)Nc1ccc(Cl)cc1)Nc1ccc(Cl)cc1
[8]
  survivor count: 6 of 6
[9]
  survivor count: 6 of 6

## O=S(=O)(n1ccnc1)C(F)(F)F
dose: 100.0 mg/kg/injection, schedule: Q01DX001 (ip), vehicle: saline
  survivor count: 0 of 6
[10]
  survivor count: 0 of 6
dose: 400.0 mg/kg/injection, schedule: Q01DX001 (ip), vehicle: saline
  survivor count: 0 of 6

## S=C(NCCCN1CCN(CCCNC(=S)Nc2c3ccccc3nc3ccccc23)CC1)Nc1c2ccccc2nc2ccccc12
[11]
  survivor count: 2 of 6
dose: 100.0 mg/kg/injection, schedule: Q01DX005 (ip), vehicle: saline with Tween-80
  survivor count: 0 of 6
[2]
  survivor count: 0 of 6

## O=S(=O)(c1cnccc1N1CCN(CCO)CC1)N1CCCCC1
[7]
  survivor count: 3 of 6

## O=C(OCCN1CCN(CCOC(=O)C(Cl)(c2ccccc2)c2ccccc2)CC1)C(Cl)(c1ccccc1)c1ccccc1
[11]
  survivor count: 5 of 5
[2]
  survivor count: 5 of 5

## O=C1Nc2ccccc2C(O)(c2ccccc2)N1Cc1ccccc1 (configuration not stated)
[12]
  survivor count: 6 of 6
[6]
  survivor count: 6 of 6

## CC1(C)CC23C4COC(=O)C2CCC1C3CC4=O (configuration not stated)
dose: 24.0 mg/kg/injection, schedule: Q01DX009 (ip), vehicle: DMSO
  survivor count: 6 of 6
dose: 96.0 mg/kg/injection, schedule: Q01DX009 (ip), vehicle: DMSO
  survivor count: 5 of 6

## [CH3][Sn]([CH3])([n]1ccnc1)[n]1ccnc1
dose: 12.5 mg/kg/injection, schedule: Q01DX005 (ip), vehicle: Klucel (hydroxypropylcellulose) (HPC)
  T/C: 129 % of control
dose: 25.0 mg/kg/injection, schedule: Q01DX005 (ip), vehicle: Klucel (hydroxypropylcellulose) (HPC)
  T/C: 128 and 129 % of control
[3]
  T/C: 129 and 140 % of control
[4]
  survivor count: 0 of 5
[5]
  survivor count: 0 of 5

## CC(Cc1ccc(O)cc1)NCC(O)c1ccc(O)c(O)c1 (configuration not stated)
dose: 200.0 mg/kg/injection, schedule: Q01DX009 (ip), vehicle: saline with Tween-80
  T/C: 127 % of control [5 of 6 alive]
[13]
  T/C: 127 % of control [5 of 6 alive]

## CCN1CC(O)Cc2ccccc21 (configuration not stated)
[1]
  survivor count: 0 of 6

## Cc1ccc(CCn2c3c(c4cc(Cl)ccc42)CN(C)CC3)cn1
[7]
  survivor count: 0 of 6

## O=C(O)c1cncc(C(=O)NCO)c1
dose: 12.5 mg/kg/injection, schedule: Q01DX009 (ip), vehicle: saline
  survivor count: 5 of 6
dose: 25.0 mg/kg/injection, schedule: Q01DX009 (ip), vehicle: saline
  survivor count: 6 of 6
[12]
  T/C: 92, 94, 98, 99 % of control
  survivor count: 6 of 6
[6]
  T/C: 87, 89, 94, 100, 128 % of control [5 of 6 alive]

## CCC1CN2CCc3cc(OC)c(OC)cc3C2CC1=O (configuration not stated)
dose: 150.0 mg/kg/injection, schedule: Q04DX003 (ip), vehicle: saline with Tween-80
  T/C: 126 % of control
dose: 300.0 mg/kg/injection, schedule: Q04DX003 (ip), vehicle: saline with Tween-80
  T/C: 128 % of control
[13]
  survivor count: 3 of 6

## OCc1nccn1Cc1ccccc1
[10]
  survivor count: 2 of 6

## CCc1ccc[n+](-c2ccncc2CC)c1
dose: 120.0 mg/kg/injection, schedule: Q01DX005 (ip), vehicle: saline
  survivor count: 3 of 6
dose: 240.0 mg/kg/injection, schedule: Q01DX005 (ip), vehicle: saline
  survivor count: 0 of 6

## COc1cc(NC(C)=O)c(OC)cc1N
dose: 100.0 mg/kg/injection, schedule: Q04DX002 (ip), vehicle: saline
  survivor count: 0 of 6 and 1 of 6
dose: 200.0 mg/kg/injection, schedule: Q04DX002 (ip), vehicle: saline
  survivor count: 0 of 6
dose: 400.0 mg/kg/injection, schedule: Q04DX002 (ip), vehicle: saline
  survivor count: 0 of 6

## CC1CCCC(C)N1C(=O)OCC12COC3(C)CCC(C)(OC1)N23 (configuration not stated)
dose: 400.0 mg/kg/injection, schedule: Q01DX005 (ip), vehicle: Klucel (hydroxypropylcellulose) (HPC)
  survivor count: 0 of 6
